Results on 58 molecules are retold here after PubChem BioAssay AID1487 (National Center for Advancing Translational Sciences (NCATS), 2009).

The other results are listed elsewhere or left out. Shown are side measurements of this screen, not its main read-out; they come without a call. Most of these compounds were active or inconclusive in the main read-out, so they are no random draw. The note in brackets gives the kind of curve behind each potency; many fits are weak.

The assay is described as follows: qHTS Assay for Modulators of Lamin A Splicing. Conditions: HeLa LMNA splicing GFP/RFP minigene ratio, 48 h. From the text:
NCGC Assay Overview: Hutchinson-Gilford Progeria Syndrome (HGPS) is a pediatric premature aging disease caused by a spontaneous mutation in the lamin A/C (LMNA) gene. The mutation activates a cryptic splice site in the LMNA pre-mRNA which results in production of a pre-lamin A protein that cannot be processed properly. The mutant protein accumulates in the nucleus and negatively affects numerous cellular functions. Correction of the splicing defect in HGPS patient cells using a targeted oligonucleotide (exo11) leads to reversal of the cellular disease phenotypes. To identify small molecule modulators of aberrant LMNA splicing, a homogenous assay was constructed in HeLa cells that used a GFP containing minigene to report on correction of aberrant splicing in lamin A and a RFP (DsRed2) to report on cell viability, uniformity and nonspecific effects on the assay signal. This assay was adapted to laser-scanning microplate cytometry (Acumen, TTP Labtech) where miniaturization of the assay to a 1,536-well plate format was possible. References: Bowen, W. P.; Wylie, P. G. Application of Laser-Scanning Fluorescence Microplate Cytometry in High Content Screening. Assay Drug Dev Technol 2006;4:209-221. Scaffidi P, Misteli T. Reversal of the cellular phenotype in the premature aging disease Hutchinson-Gilford progeria syndrome. Nat.
NCGC Assay Protocol Summary: Reagents/Controls: Stable clones expressing DsRed2 and lamin A-EGFP were generated by Cell and Molecular Technologies in S3 HeLa cells. HeLa cells were prepared for the assay when they were 70-90% confluent. The cells were counted and resuspended in Opti-MEM I (no phenol red; Gibco), 2% FBS, 1% penicillin/ streptomycin (Gibco) at concentration of 120 cells/uL concentration. The suspension was passed through a Falcon basket filter with pore size 40um (Beckton Dickson). Control titrations: column […] 1536-well plate contained a sixteen point titration (1:2 dilutions) in duplicate of ancitabine (Sigma: A8598) beginning at 40 uM final concentration. Column 2 contained a sixteen point titration (1:2 dilutions) of cycloheximide beginning at 1.4 mM final concentration. Column 3 contained ancitabine at 40 uM and column 4 contained was the vehicle control (0.5% DMSO final concentration). Assay Steps: 5 uL of HeLa cells were plated in Aurora LoBase black clear bottom (cyclic-olefin polymer) 1536-well plates at a final density of 600 cells/well. Controls and library compounds were added with a 1536-well pin array using the Kalypsys pin-tool. The plates were then incubated for 48 hrs in a cell-culture incubator (37 °C; 5% CO2, 98% humidity). Following incubation the plates were read on the Acumen Explorer using the 488 nm laser. Data was collected on objects between 10 and 100 um in size. Cell objects were defined by a 15 um width x 10 um depth filter. The ratio of the total object intensity in PMT1 (500-530 nm emission; GFP) over PMT3 (575-640 nm emission; RFP) was calculated for analysis. Keywords: NIH Roadmap, MLSCN, MLI, MLSMR, qHTS, NCGC, lamin A, Progeria, RNA splicing.
(In qHTS, concentration-response curves come from the screen itself.)

[1] abbreviates: measured here: RFP viability control channel.
Setting [2] is: measured here: GFP splicing reporter channel.

In general, AC50 refers to the midpoint of the concentration-response curve, whichever way the signal moves. On to `CCOc1ccccc1COC(=O)c1cccc(-n2cnnn2)c1`, for which the AC50 under setting [1] was 7.08 µM [rising, single point]. For the molecule `N/C(CSc1ccc(Cl)cc1)=N\S(=O)(=O)c1ccc(Cl)cc1`, under setting [1], the half-maximal activity concentration (AC50) was 0.0112 µM [falling, full curve, poor fit]. Same read-out and setting: in the case of `CCCCCCC(=O)Nc1nc(C)c(-c2csc(Nc3cccc(OC)c3)n2)s1` it was 20 µM [rising, single point]; in that of `NC(=O)NC(=O)CSc1nc(C2CCCCC2)n(-c2ccccc2)n1`, 0.316 µM [rising, full curve, poor fit]. Consider `CCc1c(C(=O)NNC(=S)NC2CCCCC2)csc1C`, for which the AC50 under setting [2] was 5.62 µM [rising, single point]. Regarding `Cn1cc(S(=O)(=O)Oc2ccccc2)c(=O)n(C)c1=O`, the concentration at half-maximal activity (AC50) under setting [1] was 0.447 µM [falling, full curve]. On to `CCC1CCCCN1C(=O)COc1c(Br)cc(Br)c2cccnc12` (stereo not given), for which the AC50 reads like this: under setting [2], 15.8 µM [rising, partial curve, poor fit]; under setting [1], 15.8 µM [rising, partial curve]. `O=C(CSC(=S)N1CCCC1)c1cc(Br)cc(Br)c1O`: the concentration at half-maximal activity (AC50) under setting [1] is 35.5 µM [rising, single point]. Take `COc1ccc(NC(=O)c2ccc(C(=O)c3ccccc3)o2)cc1`: the AC50 is, setting by setting: under setting [2], 5.62 µM [rising, partial curve, poor fit]; under setting [1], 15.8 µM [rising, single point]. With `COc1ccc2c(c1)CC/C(=C/c1ccncc1)C2=O`, the AC50 under setting [1] was 6.31 µM [rising, full curve]. For the molecule `C=CCNC(=O)c1c(N)n(-c2cccc(S(N)(=O)=O)c2)c2nc3ccccc3nc12`, the half-maximal activity concentration (AC50) under setting [2] is 7.94 µM [rising, partial curve, poor fit] and the AC50 under setting [1] was 10 µM [rising, partial curve]. For `O=C(NCc1ccccc1)c1ccc(C2SCC(=O)N2Cc2ccccc2)cc1` (stereo not given), the concentration at half-maximal activity (AC50) under setting [1] was 22.4 µM [rising, single point]. On the same count and under the same terms, in the case of `Cc1ccc(S(=O)(=O)Nc2ccccc2C=Nc2cccc(C)c2C)cc1` it was 35.5 µM [rising, single point]. With `Cc1ccc(Cn2ccnc2SCC(=O)Nc2nc3ccccc3s2)cc1`, the AC50 runs as follows: under setting [2], 17.8 µM [falling, partial curve, poor fit]; under setting [1], 1.12 µM [falling, full curve, poor fit]. For the molecule `O=C(NNC(=O)C1CC2CCC1C2)c1sc2ccccc2c1Cl` (stereo not given), the AC50 under setting [1] was 35.5 µM [rising, single point]. Same read-out and setting: the value for `CCOc1ccccc1NC(=O)Nc1ccc(Cl)cc1` was 15.8 µM [rising, single point]; that for `CCN=c1sc(C(=O)NCCc2ccccc2)cc(=O)n1CC` was 14.1 µM [rising, single point]; that for `Cc1cc(C(=O)CSc2nnc3ccccn23)c(C)n1-c1ccccc1` was 22.4 µM [rising, single point].

On to `COc1ccc(-c2[nH]c(-c3ccc(F)cc3)nc2SCC(=O)NC2CCCC2)cc1`, for which the concentration at half-maximal activity (AC50) under setting [1] was 11.2 µM [rising, partial curve]. For `CCN1CN=C(NS(=O)(=O)c2ccc(C)cc2)NC1`, the AC50 was 0.00501 µM [falling, full curve, poor fit] under setting [2] and 0.00501 µM [falling, full curve, poor fit] under setting [1].

As for `CCn1cc(C(=O)O)c(=O)c2cc(F)c(N3CCN(C(=O)Nc4ccccc4)CC3)cc21`, the AC50 by setting is: under setting [2], 15.8 µM [falling, partial curve]; under setting [1], 14.1 µM [rising, partial curve]. As to `COc1cccc(OCCSc2nc(N)cc(N)n2)c1`, the AC50 under setting [1] was 14.1 µM [rising, single point]. `CCOC(=O)N1CCN(C(=O)COc2cccc3c2CCN(Cc2ccc(F)cc2)C3=O)CC1`: the AC50 under setting [1] was 11.2 µM [rising, partial curve, poor fit]. Same read-out and setting: the value for `Cc1ccc(S(=O)(=O)c2c(C)nn(C(C)(C)C)c2OC(=O)c2ccco2)cc1` was 10 µM [rising, partial curve]. With `CCCN1CCN(c2ncnc3sc(C(=O)Nc4c(C)cc(C)cc4C)c(C)c23)CC1`, the AC50 under setting [2] was 1.78 µM [falling, partial curve, poor fit] and the AC50 under setting [1] is 0.0447 µM [falling, full curve, poor fit].

As to `Cc1nc(C)c(/C(O)=C/c2nc3ccccc3oc2=O)s1`, under setting [1], the AC50 is 11.2 µM [rising, partial curve]. The same measure, in the same setting: in the case of `COc1ccc(Nc2oc(COc3ccc(C)cc3)nc2C#N)cc1` it was 31.6 µM [rising, single point]. In the case of `O=C(Nc1cccc(Cl)c1)NC1CC2CCC(C1)N2Cc1cccs1` (stereo not given), under setting [2], the AC50 was 4.47 µM [falling, partial curve, poor fit].

Consider `O=C(c1ccc2c(c1)OCCO2)C1CCN(C(=O)c2ccc(F)c(F)c2)CC1`, for which the AC50 under setting [2] is 12.6 µM [rising, partial curve] and the concentration at half-maximal activity (AC50) under setting [1] is 25.1 µM [rising, single point]. Turning to `CCOC(=O)/C(C#N)=C\c1c(OCC)n(CC)c2ccccc12`, the AC50 under setting [1] is 12.6 µM [rising, single point]. For `O=C(c1cc2cc(Br)ccc2o1)N1CCCC1`, under setting [2], the half-maximal activity concentration (AC50) is 2.82 µM [rising, single point]. Turning to `Cn1nc(C(F)(F)F)c(C(=O)Nc2ccc(F)cc2F)c1Oc1cccc(Cl)c1`, the AC50 by setting is: under setting [2], 8.91 µM [rising, partial curve]; under setting [1], 11.2 µM [rising, partial curve]. Turning to `O=C(Nc1nc(-c2ccccc2)cs1)C1CCCCN1S(=O)(=O)c1ccccc1` (stereo not given), the AC50 under setting [1] is 14.1 µM [rising, partial curve]. In the case of `CCOC(=O)N1CCC(NC(=O)C2CCCN(C(=O)c3cc4sccc4n3C)C2)CC1` (stereo not given), the half-maximal activity concentration (AC50) under setting [1] was 20 µM [rising, partial curve, poor fit].

As to `CC(Oc1ccc(Cl)cc1Cl)C(=O)NCCCCc1ccccc1` (stereo not given), the half-maximal activity concentration (AC50) by setting is: under setting [2], 11.2 µM [rising, partial curve]; under setting [1], 22.4 µM [rising, partial curve]. Take `Nc1ccc(S(=O)(=O)Nc2ccc(Cl)nn2)cc1`: the AC50 under setting [1] was 0.0141 µM [rising, full curve, poor fit]. For `COc1ccc(OC)c(-c2csc(NC(=O)c3ccc(OCC4CCCO4)cc3)n2)c1` (stereo not given), the AC50 under setting [2] is 3.16 µM [rising, full curve] and the AC50 under setting [1] is 2.82 µM [rising, full curve]. `Cc1nn(-c2ccccc2)c(C)c1NC(=O)COc1ccc(Br)cc1Cl`: the AC50 under setting [1] is 5.62 µM [rising, full curve, poor fit]. `CCOC(=O)c1c(OCCO)nn(-c2ccc(Cl)cc2)c1N`: the AC50 was 3.98 µM [falling, full curve, poor fit] under setting [2] and 3.98 µM [falling, full curve, poor fit] under setting [1].

`CCOC(=O)N1CCN(Cc2nc3cc(NC(=O)c4ccc(OC)cc4)ccc3n2C(C)C)CC1`: the AC50 under setting [1] is 14.1 µM [rising, partial curve]. As to `CC1(CCc2ccccc2)NC(=S)N(c2ccccc2)N1` (stereo not given), the AC50 under setting [2] is 15.8 µM [rising, single point]. In the case of `O=C(Nc1ccc(Oc2ccccc2)cc1)c1ccco1`, the AC50 is 14.1 µM [rising, partial curve] under setting [2] and 25.1 µM [rising, single point] under setting [1].

`Nc1n[nH]c2cc(=O)n(-c3cccc(C(F)(F)F)c3)nc12`: the AC50 under setting [2] is 6.31 µM [falling, partial curve]. With `Cc1ccccc1OCC(O)CN1CCN(CC(O)COc2ccccc2C)CC1` (stereo not given), the AC50 under setting [2] is 35.5 µM [falling, single point] and the AC50 under setting [1] is 22.4 µM [falling, single point]. On to `O=c1oc2ccccc2c(N2CCCC2)c1CN1CCCC1`, for which the AC50 under setting [1] was 11.2 µM [rising, partial curve]. As for `Cc1ccc(CN(C(=O)c2ccccc2F)c2ccccn2)o1`, under setting [1], the AC50 is 31.6 µM [rising, single point]. On to `Cc1nnc2n1N=CC=C(c1ccccc1)S2`, for which the concentration at half-maximal activity (AC50) under setting [2] was 35.5 µM [falling, single point]. For the molecule `O=C(c1ccc(Cl)c(S(=O)(=O)N2CCCC2)c1)N1CCN(c2ncccn2)CC1`, the AC50 under setting [1] was 0.00447 µM [falling, full curve]. With `CCOc1ccc(C(=O)Nc2cccc(C(=O)OCc3cc(=O)n4nc(C5CC5)sc4n3)c2)cc1`, the concentration at half-maximal activity (AC50) under setting [2] was 6.31 µM [falling, full curve, poor fit]. With `CC1CCCCN1CCNc1nc(=S)[nH]c2ccccc12` (stereo not given), the AC50 under setting [1] is 3.98 µM [falling, single point]. As to `O=C(CSc1nc(O)cc(=O)n1-c1ccccc1)Nc1ccc(Br)cn1`, the concentration at half-maximal activity (AC50) reads like this: under setting [2], 0.126 µM [rising, full curve, poor fit]; under setting [1], 3.55 µM [rising, partial curve, poor fit].

Regarding `Cc1cc(NC(=O)CS(=O)(=O)c2cn(Cc3ccc(F)cc3)c3ccccc23)no1`, the half-maximal activity concentration (AC50) under setting [1] was 35.5 µM [rising, single point]. Regarding `O=C(NCC1CCN(c2ccc(S(=O)(=O)N3CCOCC3)cc2)CC1)c1cccc(Cl)c1`, the half-maximal activity concentration (AC50) under setting [1] was 20 µM [rising, single point]. With `CCOC(=O)c1ccccc1NC(=O)CSc1nc(=O)[nH]c2c1CCC2`, under setting [1], the concentration at half-maximal activity (AC50) was 0.00316 µM [falling, full curve, poor fit]. As to `O=C(COC(=O)c1cccs1)Nc1cc(S(=O)(=O)N2CCOCC2)ccc1Cl`, under setting [2], the half-maximal activity concentration (AC50) is 6.31 µM [falling, single point]. Take `CCCS(=O)(=O)N1CC(=O)N(c2cc(C)ccc2C)C(C)(C(=O)NC2CCCCCC2)C1` (stereo not given): the concentration at half-maximal activity (AC50) runs as follows: under setting [2], 0.0316 µM [falling, full curve]; under setting [1], 0.0282 µM [falling, full curve]. With `CC(c1ccco1)N(C(=O)C12CC3CC(CC(C)(C3)C1)C2)c1ccccn1` (stereo not given), the AC50 is, setting by setting: under setting [2], 11.2 µM [rising, partial curve, poor fit]; under setting [1], 17.8 µM [rising, partial curve]. Take `O=C(NC(=S)N1CCN(c2ccc(Cl)cc2[N+](=O)[O-])CC1)c1cccs1`: under setting [1], the concentration at half-maximal activity (AC50) was 15.8 µM [rising, single point].
